Read-outs that look alike come from different tables or passages of the source. These are yes or no findings as the source states them, for the method shown. Binding seen in cells or lysates may run through a third protein. A result given as binding can be weak or reduced; the word gives no strength. For some of these results: Tags and fused reporters may be left off the sequences shown.

By UniProt entry, the sequences of proteins in these tests, tags left out.
UniProt P83949: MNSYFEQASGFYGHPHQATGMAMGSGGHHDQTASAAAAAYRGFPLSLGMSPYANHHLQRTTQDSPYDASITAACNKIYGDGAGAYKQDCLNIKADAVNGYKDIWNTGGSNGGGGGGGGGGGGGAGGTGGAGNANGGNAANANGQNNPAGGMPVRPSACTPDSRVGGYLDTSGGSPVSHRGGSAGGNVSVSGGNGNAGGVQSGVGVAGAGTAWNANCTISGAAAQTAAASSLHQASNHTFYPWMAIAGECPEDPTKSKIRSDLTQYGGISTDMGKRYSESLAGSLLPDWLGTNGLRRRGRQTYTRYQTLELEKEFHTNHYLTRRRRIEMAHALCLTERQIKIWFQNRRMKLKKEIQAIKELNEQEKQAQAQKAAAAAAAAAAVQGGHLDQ

Consider six molecules from PMC4006704.

Experiment [1] concerns the target Med19ΔHIM-VC (internally deleted Med19 fused to the C-terminal fragment of Venus) (Drosophila melanogaster) (UniProt Q9VVL6). Put plainly: co-IP; transfected Drosophila S2 cells; extracts in IP buffer (50 mM TrisHCl pH 8, 150 mM NaCl, 0.5% NP40, 1 mM EGTA), 4°C, immunoprecipitated with mouse anti-GFP (VC tag) and G-protein Sepharose; Western blots with anti-Med1, anti-Med19, anti-HA.

The target of experiment [2] is T1, Med19-VC (full-length Med19 fused to the C-terminal fragment of Venus) (Drosophila melanogaster) (UniProt Q9VVL6).
T1 sequence: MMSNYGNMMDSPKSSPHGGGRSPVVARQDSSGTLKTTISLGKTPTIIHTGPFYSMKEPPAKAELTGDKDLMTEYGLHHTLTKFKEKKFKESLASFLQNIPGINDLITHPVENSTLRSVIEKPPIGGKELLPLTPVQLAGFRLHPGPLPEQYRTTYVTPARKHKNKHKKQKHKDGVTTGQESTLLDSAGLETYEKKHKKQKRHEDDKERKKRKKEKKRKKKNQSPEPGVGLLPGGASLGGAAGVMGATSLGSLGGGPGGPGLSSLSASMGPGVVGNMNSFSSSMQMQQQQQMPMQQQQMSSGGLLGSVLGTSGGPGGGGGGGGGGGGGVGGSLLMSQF
Put plainly: split reporter; BiFC with Venus VN and VC fusions co-expressed from UAS constructs in Drosophila embryos under engrailed-Gal4, Ubx-Gal4 or abdA-Gal4 control.

The target of experiment [3] is T1, Med19-VC (full-length Med19 fused to the C-terminal fragment of Venus) (Drosophila melanogaster). Put plainly: split reporter; BiFC with Venus VN and VC fusions co-expressed from UAS constructs in wing imaginal discs of third-instar larvae under dpp-Gal4 control; fixed discs, confocal, at least 10 discs per genotype.
Experiment [4] has as its target Med19ΔHIM-VC (internally deleted Med19 fused to the C-terminal fragment of Venus) (Drosophila melanogaster) (UniProt Q9VVL6). The experiment is described as follows: co-IP; transfected Drosophila S2 cells; extracts in IP buffer (50 mM TrisHCl pH 8, 150 mM NaCl, 0.5% NP40, 1 mM EGTA), 4°C, immunoprecipitated with mouse anti-GFP (VC tag) and G-protein Sepharose; Western blots with anti-Med1, anti-Med19, anti-HA. The source holds these as a separate data set.

Experiment [5] has as its target GST-HDAntp (GST fused to the Antp homeodomain) (Drosophila melanogaster). The experiment is described as follows: pull-down; 35S-labelled Med19 (full length or deleted versions) probing immobilised GST-Hox fusions or GST-HDAntp; standard conditions, essentially as in ref. 68 (Figures 1A, 5A); only the target purified.

Regarding Ubx-HA (from UniProt P83949 1-389), the binding result in experiment [1] is reported as “binds”.

As to “VN-HDAbdA (AbdA homeodomain fused to the N-terminal fragment of Venus) (Drosophila melanogaster) (domain or fragment)”, the binding result in experiment [2] was “binds”.

“VN-HDUbx (Ubx homeodomain fused to the N-terminal fragment of Venus) (Drosophila melanogaster) (domain or fragment)”: the binding entry in experiment [3] and in experiment [2] was “binds” in each case.

B1: endogenous Med1 (three isoforms) (protein, UniProt Q9VP05 1-1475)
chain: MSGSNAKSSGTGFGSHIPSIEEKNKQIQQETMMEKLRAKYRNKPKSYEEIKKSVRMYFIEKHYPLDPLCKATLQSALDKLQHYIKVTSRHGLVERLESLSRQLGLKFMEDQQLLFISTDMFYVEILLDAAGSLSDVKVHHECKIEQQSSELVACLKSGDFADFTVQLEGLSSIYQLNAEPKVKKKAFVALQAMETDIQSLYQLHLQGHSGDSYSLMTSSSVGLVLPRRGGHPMRLTYFCPPLHLPEGDPKLASGDFTIDQVMRSSYGLSATINLEGSSANKLQTLPTVTLVRDAQTGLEVPTYAQLNQNNSLLMPATFVLRLNKPMPVCLESLKALGLPGLDSVATPPGPPTTVLNLIVQTASKQAIKNTQRGLYVNLPKETHCYFFTDNRKLQGTLVSSLPFTEPAQVPRIVAFLKKQALFYTLLASCVREQQKQYNDMDSTVILEVTAVSFNQITVELQHPYEESLATVDFLLEDGQPTCSVYCLTNEYELLSQKLTRTARKVVSIPMVIYKLLKCWDEEHEFKLHGAIGPGSGSGAIGGGGMSGGGPVSGVGNNFSQFSMDTPTPSDGSLPGGGFANINNLKMDAKSRSLADAFAASTSAAAAIAGLINLKRETDPQSGSSASGTTVSGSSSSSGSAKTSDHDIADKYKNIWKDKTPNLKHCVSITPIPGDGKSGSAGGVSGVEVQRTGGIEIIPLNAQAAIAGGGVTASSSATPTTITITPITGKDPSKDSTKKSTAASAGVGVAAKRPHESSTSSSSTSGCSGSGSSMSSSASSGSSDTQKEKKRKKKRDDSPMGPPEKIYSRQNSPAGGADASATGGVVRKFSSPSSSPKAGGGGQGLMAGVPTARPSPKHSPVYSSPKHNTASNSPKSPFGTHSPKHGSSGKPSMSTLKSAATAATILSPKGDKSSSAVGNTSSGPSASSGSSGATGLVRSFASVGAPPPPPPIPPLASSSGSISSSQSLKKEKTSSASGSSSTSSSATAGVASGGGISPASVAAAVAALKSSQQQMKSVASLSHLAAGGGLGSYAAPSGAGASGAAAVVVGAGAGAGAGASGLELSALRKGMAGGAVSLMTSTAALAPTIPAPTTTVAAGSAASLVSPVSAVVGQGQETAGAAAAATLATATILQQQPQPGAAPTSSCLTTSGGSSDSAGSINPAGASTEYMVKPSSQEGLKLTINKTGSSKSSGTGSGSSSSSGLQAKAKSSSSGATSFAGSTGSTKKQHTGLKPGVNSGPASKKATAAVSSATASSSKHFFQKANSSGNLSSKLSGSGSGGGIPLTKSNSTNSFQEHNAPRRRPSMGALASGSSGGGSGQRKLGSASGGGSGSSGSVSPALSGSMSQPPPRFDHHTDMMTILQYASPTMAASMEGFIKGLHNKFQIPKLSQRGSGGNTTSGRSTPSGSSEPALAGTSSSILGPIASSTGLTEPEAKPPVPPSQSGNEGLLNLSSTAGTPSADGIDEELLASLAGE
Consider B1, for which the binding result in experiment [4] is given as “binds”.

B2: 35S-labelled full-length Med19 (Mediator complex subunit 19) (protein, UniProt Q9VVL6 1-337)
chain: MMSNYGNMMDSPKSSPHGGGRSPVVARQDSSGTLKTTISLGKTPTIIHTGPFYSMKEPPAKAELTGDKDLMTEYGLHHTLTKFKEKKFKESLASFLQNIPGINDLITHPVENSTLRSVIEKPPIGGKELLPLTPVQLAGFRLHPGPLPEQYRTTYVTPARKHKNKHKKQKHKDGVTTGQESTLLDSAGLETYEKKHKKQKRHEDDKERKKRKKEKKRKKKNQSPEPGVGLLPGGASLGGAAGVMGATSLGSLGGGPGGPGLSSLSASMGPGVVGNMNSFSSSMQMQQQQQMPMQQQQMSSGGLLGSVLGTSGGPGGGGGGGGGGGGGVGGSLLMSQF
modifications: 35S-labelled
As to B2, the binding result in experiment [5] is “binds”.

B3: 35S-labelled 70 a.a. HIM peptide of Med19 (160–229) (construct #7) (domain or fragment, UniProt Q9VVL6 160-229)
chain: RKHKNKHKKQKHKDGVTTGQESTLLDSAGLETYEKKHKKQKRHEDDKERKKRKKEKKRKKKNQSPEPGVG
modifications: 35S-labelled
Consider B3, for which the binding result in experiment [5] is on record as “binds”.
